The text below walks through data of patent US20150010912.

Chains of the proteins cited; added tags and fusions are not shown. A line that says so, or that is headed by a name, gives the form on record, which may keep a tag or linker.
R2Bm DNA binding domain (zinc finger and myb motif) (Bombyx mori), one chain, as listed by the source: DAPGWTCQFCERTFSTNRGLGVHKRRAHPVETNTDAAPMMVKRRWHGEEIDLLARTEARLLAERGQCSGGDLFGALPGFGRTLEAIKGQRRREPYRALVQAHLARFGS

Construct, isoform or probe ends are uncertain for at least one entry.

Series [1] concerns R2Bm DNA binding domain (zinc finger and myb motif) (Bombyx mori). As to the kind of experiment: EMSA. The settings on record: 0.28-8.4 pmol protein; also on-chip binding (Sypro Ruby, I-V) in 50 mM Tris-HCl pH 8.0, 100 mM NaCl, 5 mM MgCl2; purified recombinant protein. (In EMSA bound probe runs differently from free probe, usually more slowly.)
For series [2], the target named is EGFRvIII (expressed on Ink4a/Arf-/- mouse neural stem cells) del6-273 (UniProt P00533). As to the kind of experiment: activity assay. The settings on record: 2'-F C and U (Durascribe transcription); cell capture on glass, S.D. 143.3; PBS, 5 mM MgCl2, 37 C, 30 min; also FAM fluorescence binding FIG. 21; protein on the cell surface; protein details: retroviral expression.

For series [3], the target named is EGFR extracellular domain (Leu25-Ser645) Fc fusion (Homo sapiens) (UniProt P00533). As to the kind of experiment: binding assay. The note with it: 2'-F C and U (Durascribe transcription), purified recombinant protein.

For orientation: Kd means the free concentration of one partner at which half of the binding sites on the other are occupied at equilibrium, for simple one-to-one binding.

Consider “CTTAAGGTAGCAAATGCCTCGTC (double strand) [R2Bm 23 bp target site (large ribosomal subunit rRNA gene)]”, for which the binding result in series [1] was “binds”.
The sequence “GGCGCUCCGACCUUAGUCUCUGUGCCGCUAUAAUGCACGGAUUUAAUCGCCGUAGAAAAGCAUGUCAAAGCCGGAACCGUGUAGCACAGCAGAGAAUUAAAUGCCCGCCAUGACCAG [anti-EGFR RNA aptamer (extended)]” yielded a functional effect of the aptamer in series [2] of 392 cells/mm2. The binding result in series [3] (break-junction conductance increase on EGFR capture, none on control without aptamer, EGFR construct and aptamer sequence not specified in this example) was “binds”. Also, in series [3] (method not stated, Kd quoted for selected aptamer before extension with capture sequence), the Kd amounted to 2.4 nM.
